Laboratory results published in the supplement of paper PMC10849652.
Some of the results follow. Residues, ends and D or L forms follow the SMILES beside them. *: point of attachment. Cbz = O=C(OCc1ccccc1)*

Chains of the proteins cited; added tags and fusions are not shown. Lines headed by an entry give the natural chain unless they say otherwise; changes in a name come on top.
UniProt O94788: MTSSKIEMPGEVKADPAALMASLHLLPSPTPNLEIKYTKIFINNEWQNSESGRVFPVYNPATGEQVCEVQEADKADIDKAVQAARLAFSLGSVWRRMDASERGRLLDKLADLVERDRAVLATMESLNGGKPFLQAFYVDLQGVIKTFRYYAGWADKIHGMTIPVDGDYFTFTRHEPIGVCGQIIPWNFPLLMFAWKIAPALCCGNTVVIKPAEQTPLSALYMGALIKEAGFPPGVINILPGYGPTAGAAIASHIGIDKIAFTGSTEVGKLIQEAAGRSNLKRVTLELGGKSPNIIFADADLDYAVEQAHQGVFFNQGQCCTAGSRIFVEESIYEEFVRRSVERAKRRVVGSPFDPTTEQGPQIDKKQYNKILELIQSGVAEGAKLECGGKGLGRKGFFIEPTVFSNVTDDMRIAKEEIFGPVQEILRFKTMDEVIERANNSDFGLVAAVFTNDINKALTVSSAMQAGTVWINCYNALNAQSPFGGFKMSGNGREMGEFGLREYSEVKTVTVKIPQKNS
UniProt Q9H6U8: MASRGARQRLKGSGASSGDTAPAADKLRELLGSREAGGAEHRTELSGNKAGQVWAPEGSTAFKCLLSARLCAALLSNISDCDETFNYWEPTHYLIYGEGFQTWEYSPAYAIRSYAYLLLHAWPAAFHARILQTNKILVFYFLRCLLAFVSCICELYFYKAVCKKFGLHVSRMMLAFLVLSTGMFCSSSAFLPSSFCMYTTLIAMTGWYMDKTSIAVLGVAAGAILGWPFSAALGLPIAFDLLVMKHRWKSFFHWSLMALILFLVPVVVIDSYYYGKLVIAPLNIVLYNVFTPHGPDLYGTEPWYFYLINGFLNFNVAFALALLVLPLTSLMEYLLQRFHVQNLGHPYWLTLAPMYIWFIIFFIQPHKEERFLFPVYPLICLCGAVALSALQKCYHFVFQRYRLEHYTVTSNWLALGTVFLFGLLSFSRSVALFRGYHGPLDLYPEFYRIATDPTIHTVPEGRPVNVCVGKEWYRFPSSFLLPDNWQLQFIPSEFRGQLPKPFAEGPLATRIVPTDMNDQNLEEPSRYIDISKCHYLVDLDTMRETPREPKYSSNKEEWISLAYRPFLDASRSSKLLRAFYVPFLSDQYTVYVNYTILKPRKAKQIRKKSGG
UniProt Q6RW13: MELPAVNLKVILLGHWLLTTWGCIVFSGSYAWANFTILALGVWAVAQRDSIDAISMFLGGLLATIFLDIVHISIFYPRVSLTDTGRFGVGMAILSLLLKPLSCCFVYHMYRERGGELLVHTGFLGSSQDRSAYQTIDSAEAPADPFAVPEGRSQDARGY
UniProt Q92667: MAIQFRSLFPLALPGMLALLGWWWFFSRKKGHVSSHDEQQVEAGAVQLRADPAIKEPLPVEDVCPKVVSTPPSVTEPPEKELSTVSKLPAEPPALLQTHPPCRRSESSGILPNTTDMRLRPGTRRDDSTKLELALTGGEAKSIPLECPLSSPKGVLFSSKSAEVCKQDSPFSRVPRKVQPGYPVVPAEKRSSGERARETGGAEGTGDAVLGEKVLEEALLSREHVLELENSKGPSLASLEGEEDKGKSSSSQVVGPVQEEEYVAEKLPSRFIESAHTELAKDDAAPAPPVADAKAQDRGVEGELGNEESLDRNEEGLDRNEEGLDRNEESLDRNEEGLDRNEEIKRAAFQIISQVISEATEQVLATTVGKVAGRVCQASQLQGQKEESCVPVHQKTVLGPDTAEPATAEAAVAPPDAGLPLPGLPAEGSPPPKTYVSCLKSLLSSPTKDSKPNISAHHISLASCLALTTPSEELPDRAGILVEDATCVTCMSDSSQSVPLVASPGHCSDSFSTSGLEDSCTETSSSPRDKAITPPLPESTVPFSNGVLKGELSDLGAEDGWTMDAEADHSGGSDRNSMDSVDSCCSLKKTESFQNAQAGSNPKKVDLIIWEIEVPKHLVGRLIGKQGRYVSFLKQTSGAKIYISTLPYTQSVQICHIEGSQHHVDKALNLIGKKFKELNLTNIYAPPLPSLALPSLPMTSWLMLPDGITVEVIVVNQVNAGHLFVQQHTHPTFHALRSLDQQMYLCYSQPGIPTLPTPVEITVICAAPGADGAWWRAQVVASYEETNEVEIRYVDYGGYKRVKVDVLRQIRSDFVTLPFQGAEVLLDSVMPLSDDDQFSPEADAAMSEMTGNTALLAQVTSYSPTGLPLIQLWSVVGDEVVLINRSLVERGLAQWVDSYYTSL
UniProt Q96BJ3: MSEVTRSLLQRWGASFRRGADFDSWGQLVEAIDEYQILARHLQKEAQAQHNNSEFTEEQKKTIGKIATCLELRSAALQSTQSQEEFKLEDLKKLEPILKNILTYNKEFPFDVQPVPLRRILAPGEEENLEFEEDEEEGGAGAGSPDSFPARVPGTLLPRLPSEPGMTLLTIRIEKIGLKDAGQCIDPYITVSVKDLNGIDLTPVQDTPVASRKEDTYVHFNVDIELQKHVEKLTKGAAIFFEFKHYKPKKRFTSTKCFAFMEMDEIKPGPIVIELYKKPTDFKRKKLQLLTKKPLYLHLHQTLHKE
UniProt P00352: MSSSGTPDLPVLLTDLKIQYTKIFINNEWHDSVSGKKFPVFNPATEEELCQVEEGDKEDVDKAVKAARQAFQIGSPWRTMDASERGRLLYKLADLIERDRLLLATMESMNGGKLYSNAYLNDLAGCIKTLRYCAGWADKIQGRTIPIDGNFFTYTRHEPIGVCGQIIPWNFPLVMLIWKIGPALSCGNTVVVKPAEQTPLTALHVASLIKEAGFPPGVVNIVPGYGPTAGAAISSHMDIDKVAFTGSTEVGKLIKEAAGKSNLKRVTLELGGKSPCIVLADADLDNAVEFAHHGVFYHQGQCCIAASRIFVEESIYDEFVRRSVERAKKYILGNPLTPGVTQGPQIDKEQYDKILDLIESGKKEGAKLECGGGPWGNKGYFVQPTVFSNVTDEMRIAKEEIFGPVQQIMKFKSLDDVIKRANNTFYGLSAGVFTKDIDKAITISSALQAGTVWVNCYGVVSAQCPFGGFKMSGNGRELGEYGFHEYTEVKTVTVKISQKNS
UniProt Q9Y4W6: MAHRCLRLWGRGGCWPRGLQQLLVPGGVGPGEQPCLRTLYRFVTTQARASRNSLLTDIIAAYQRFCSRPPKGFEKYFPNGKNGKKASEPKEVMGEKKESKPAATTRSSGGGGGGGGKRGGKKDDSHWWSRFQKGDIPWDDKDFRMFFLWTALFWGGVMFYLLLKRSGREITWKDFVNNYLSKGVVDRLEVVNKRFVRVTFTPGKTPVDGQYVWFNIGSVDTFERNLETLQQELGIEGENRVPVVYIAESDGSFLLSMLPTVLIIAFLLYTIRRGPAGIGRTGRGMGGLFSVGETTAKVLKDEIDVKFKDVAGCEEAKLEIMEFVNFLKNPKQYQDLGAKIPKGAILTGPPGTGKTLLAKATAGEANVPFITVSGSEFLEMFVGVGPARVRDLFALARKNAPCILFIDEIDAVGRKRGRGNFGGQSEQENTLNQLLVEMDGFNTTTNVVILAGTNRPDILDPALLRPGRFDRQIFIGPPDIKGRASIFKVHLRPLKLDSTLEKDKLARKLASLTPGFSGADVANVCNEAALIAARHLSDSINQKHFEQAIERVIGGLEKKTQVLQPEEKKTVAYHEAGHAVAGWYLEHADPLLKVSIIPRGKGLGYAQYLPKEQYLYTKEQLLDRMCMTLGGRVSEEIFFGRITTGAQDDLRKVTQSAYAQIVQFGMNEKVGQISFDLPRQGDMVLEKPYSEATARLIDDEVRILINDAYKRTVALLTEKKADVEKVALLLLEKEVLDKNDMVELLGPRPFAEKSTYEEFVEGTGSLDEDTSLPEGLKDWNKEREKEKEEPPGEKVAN
UniProt O43865, whole entry, looked up: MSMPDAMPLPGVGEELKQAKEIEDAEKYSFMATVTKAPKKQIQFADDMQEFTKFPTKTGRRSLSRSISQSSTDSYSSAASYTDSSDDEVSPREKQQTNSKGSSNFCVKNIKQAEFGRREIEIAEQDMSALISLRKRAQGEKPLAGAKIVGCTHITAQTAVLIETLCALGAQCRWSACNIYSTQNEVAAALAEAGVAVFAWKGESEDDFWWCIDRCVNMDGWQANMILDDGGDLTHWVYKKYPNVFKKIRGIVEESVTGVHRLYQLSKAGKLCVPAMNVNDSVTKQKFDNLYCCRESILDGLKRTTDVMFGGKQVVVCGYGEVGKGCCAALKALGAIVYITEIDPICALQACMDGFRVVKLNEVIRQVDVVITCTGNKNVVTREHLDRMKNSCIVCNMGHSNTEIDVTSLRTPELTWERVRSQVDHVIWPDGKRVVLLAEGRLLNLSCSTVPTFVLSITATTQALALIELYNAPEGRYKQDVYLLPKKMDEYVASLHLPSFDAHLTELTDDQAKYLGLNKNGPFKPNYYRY
UniProt Q9UM13, whole entry, looked up: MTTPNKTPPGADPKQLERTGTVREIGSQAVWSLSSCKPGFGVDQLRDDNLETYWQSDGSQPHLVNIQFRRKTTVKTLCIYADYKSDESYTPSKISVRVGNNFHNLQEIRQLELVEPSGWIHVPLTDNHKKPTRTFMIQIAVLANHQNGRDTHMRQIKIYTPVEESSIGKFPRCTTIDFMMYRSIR
UniProt Q9UIJ7: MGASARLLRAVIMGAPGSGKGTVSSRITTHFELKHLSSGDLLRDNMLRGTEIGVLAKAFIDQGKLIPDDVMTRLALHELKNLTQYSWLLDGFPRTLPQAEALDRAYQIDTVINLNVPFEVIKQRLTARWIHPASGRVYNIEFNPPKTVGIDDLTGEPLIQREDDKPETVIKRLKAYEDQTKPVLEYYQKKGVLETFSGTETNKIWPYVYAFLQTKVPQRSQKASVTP
UniProt Q02952: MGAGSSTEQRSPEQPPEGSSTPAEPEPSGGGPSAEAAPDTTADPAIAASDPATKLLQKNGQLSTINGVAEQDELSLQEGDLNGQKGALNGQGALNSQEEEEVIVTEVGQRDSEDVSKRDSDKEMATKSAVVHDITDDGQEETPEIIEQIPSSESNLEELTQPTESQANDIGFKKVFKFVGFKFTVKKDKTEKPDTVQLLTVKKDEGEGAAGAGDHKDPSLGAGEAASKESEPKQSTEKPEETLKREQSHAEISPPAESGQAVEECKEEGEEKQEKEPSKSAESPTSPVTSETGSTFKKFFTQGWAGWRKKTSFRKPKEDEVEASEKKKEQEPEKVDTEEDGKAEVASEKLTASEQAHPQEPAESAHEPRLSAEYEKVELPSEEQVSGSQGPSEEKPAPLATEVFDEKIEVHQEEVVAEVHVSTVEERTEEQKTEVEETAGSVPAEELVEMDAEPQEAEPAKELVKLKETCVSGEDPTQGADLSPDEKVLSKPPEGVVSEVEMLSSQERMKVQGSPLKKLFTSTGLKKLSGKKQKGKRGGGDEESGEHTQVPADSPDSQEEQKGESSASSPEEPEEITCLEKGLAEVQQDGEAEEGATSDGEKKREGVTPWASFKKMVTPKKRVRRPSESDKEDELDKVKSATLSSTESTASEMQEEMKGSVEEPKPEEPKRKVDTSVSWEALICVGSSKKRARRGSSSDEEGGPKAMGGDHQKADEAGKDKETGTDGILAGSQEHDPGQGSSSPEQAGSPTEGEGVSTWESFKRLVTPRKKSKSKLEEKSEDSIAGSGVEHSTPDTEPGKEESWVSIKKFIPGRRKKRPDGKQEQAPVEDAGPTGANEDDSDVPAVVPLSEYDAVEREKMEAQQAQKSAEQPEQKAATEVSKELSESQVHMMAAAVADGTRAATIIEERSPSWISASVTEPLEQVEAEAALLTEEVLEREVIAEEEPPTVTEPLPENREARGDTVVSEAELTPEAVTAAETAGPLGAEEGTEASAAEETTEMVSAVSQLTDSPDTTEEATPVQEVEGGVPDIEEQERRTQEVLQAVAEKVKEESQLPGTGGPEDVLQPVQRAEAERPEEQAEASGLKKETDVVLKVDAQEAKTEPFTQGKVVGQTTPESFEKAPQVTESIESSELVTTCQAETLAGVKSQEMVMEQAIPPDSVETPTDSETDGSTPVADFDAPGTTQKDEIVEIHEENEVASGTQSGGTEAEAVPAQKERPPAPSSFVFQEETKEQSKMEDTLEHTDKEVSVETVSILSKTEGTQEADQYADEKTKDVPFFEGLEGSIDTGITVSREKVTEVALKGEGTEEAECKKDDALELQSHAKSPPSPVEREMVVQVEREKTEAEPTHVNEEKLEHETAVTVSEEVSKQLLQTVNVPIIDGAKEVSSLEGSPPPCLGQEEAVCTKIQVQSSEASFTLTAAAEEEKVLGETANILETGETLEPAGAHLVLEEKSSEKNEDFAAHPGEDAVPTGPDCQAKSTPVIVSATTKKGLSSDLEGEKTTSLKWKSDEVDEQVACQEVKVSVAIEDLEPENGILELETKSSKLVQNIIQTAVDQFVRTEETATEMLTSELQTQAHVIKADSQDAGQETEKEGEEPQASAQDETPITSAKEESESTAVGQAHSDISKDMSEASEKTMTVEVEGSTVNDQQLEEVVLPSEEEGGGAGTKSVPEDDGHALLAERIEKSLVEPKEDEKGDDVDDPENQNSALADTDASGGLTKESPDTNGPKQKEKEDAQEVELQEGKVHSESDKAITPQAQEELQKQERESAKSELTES

Legend:
Experiment in all cases: log2 fold change, soluble protein after heating vs DMSO (PISA); higher = thermal stabilisation; K562 cells, 10 uM, 30 min; active = over 0.2 and 3.5 SD of the protein, either way, in both replicates (recomputed)
IRAK-1-4 Inhibitor I = compound: C1COCCN1CCN2C3=CC=CC=C3N=C2NC(=O)C4=CC(=CC=C4)[N+](=O)[O-] [IRAK-1-4 Inhibitor I]
In short: (§1)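 K562 cells at 2×10^6 cells/mL were treated for 30 min with 10 μM compound, and aliquots were heated for 3 min over 48°C-58°C before pooling. Extraction used PBS with 0.5% NP-40 at 4°C, and soluble protein was the supernatant after 21,000xg for 90 min, measured by TMTpro 16plex LC-MS/MS with channel sums equalised. Thermal stability values, relative to control samples and from duplicates, are log2 fold changes.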

ibrutinib = compound: C=CC(=O)N1CCC[C@@H](n2nc(-c3ccc(Oc4ccccc4)cc3)c3c(N)ncnc32)C1 [ibrutinib]
In short: as §1

[1] = compound: CC(=O)c1cnc2ccc(-c3cc(Cl)c(O)c(Cl)c3)nc2c1N[C@H]1CC[C@H](CN(C)C)CC1
In short: as §1

ralimetinib = compound: CC(C)(C)Cn1c(N)nc2ccc(-c3[nH]c(C(C)(C)C)nc3-c3ccc(F)cc3)nc21 [ralimetinib]
In short: as §1

[2] = compound: CC(C)(O)CC(=O)NCCn1ccc2ncnc(Nc3ccc(Oc4cccc(C(F)(F)F)c4)c(Cl)c3)c21
In short: as §1

[3] = compound: CC(C)C1=C2N=C(C=C(N2N=C1)NCC3=CC=CC=C3)NCCCCCCN
In short: as §1

[4] = compound: CC(C)C[C@@H](C=O)NC(=O)[C@H](CC(C)C)NC(=O)[C@H](CC(C)C)NC(=O)OCc1ccccc1
In short: as §1

pinometostat = compound: CC(C)N(C[C@H]1O[C@@H](n2cnc3c(N)ncnc32)[C@H](O)[C@@H]1O)[C@H]1C[C@@H](CCc2nc3cc(C(C)(C)C)ccc3[nH]2)C1 [pinometostat]
In short: as §1

[5] = compound: CC1=C(C(CC(=O)N1)C2=CC=C(C=C2)C(F)(F)F)C(=O)NC3=C(C=C4C(=C3)C=NN4)F
In short: as §1

[6] = compound: CC1=C(C2=C(C=C1)C(=O)C3=CC=CC=C3N2CCCN)C
In short: as §1

Measured: log2 fold change

AIFM1 (UniProt O95831)
inactive: IRAK-1-4 Inhibitor I 0.024 | ibrutinib 0.006 | [1] -0.025 | ralimetinib -0.018 | [2] -0.008 | [3] 0.028 | [4] -0.023 | pinometostat -0.04 | [5] -0.004 | [6] 0.016

ALDH1A2 (UniProt O94788)
inactive: IRAK-1-4 Inhibitor I 0.044 | ibrutinib 0.101 | [1] -0.003 | ralimetinib -0.008 | [2] -0.019 | [3] 0.036 | [4] -0.023 | pinometostat -0.032 | [5] -0.016 | [6] 0.033

ALG9 isoform 3 (UniProt Q9H6U8)
inactive: IRAK-1-4 Inhibitor I 0.035 | ibrutinib 0.019 | [1] -0.038 | ralimetinib -0.055 | [2] 0.005 | [3] -0.053 | [4] 0.002 | pinometostat 0.023 | [5] -0.007 | [6] 0.024

AGTRAP (UniProt Q6RW13)
inactive: IRAK-1-4 Inhibitor I 0.009 | ibrutinib -0.042 | [1] -0.125 | ralimetinib -0.062 | [2] -0.023 | [3] -0.059 | [4] 0.066 | pinometostat 0.016 | [5] -0.051 | [6] 0.13

AKAP1 (UniProt Q92667)
inactive: IRAK-1-4 Inhibitor I -0.098 | ibrutinib -0.034 | [1] -0.082 | ralimetinib 0.14 | [2] 0.042 | [3] -0.176 | [4] 0.046 | pinometostat 0.197 | [5] 0.032 | [6] 0.042

AIDA (UniProt Q96BJ3)
inactive: IRAK-1-4 Inhibitor I 0.014 | ibrutinib 0.02 | [1] -0.022 | ralimetinib -0.012 | [2] -0.051 | [3] 0.016 | [4] -0.075 | pinometostat -0.02 | [5] -0.017 | [6] -0.013

ALDH1A1 (UniProt P00352)
inactive: IRAK-1-4 Inhibitor I 0.022 | ibrutinib 0.128 | [1] 0.018 | ralimetinib -0.009 | [2] -0.001 | [3] 0.047 | [4] -0.037 | pinometostat -0.022 | [5] -0.027 | [6] -0.001

AFG3L2 (UniProt Q9Y4W6)
inactive: IRAK-1-4 Inhibitor I -0.005 | ibrutinib -0.037 | [1] -0.01 | ralimetinib -0.058 | [2] -0.099 | [3] -0.154 | [4] 0.004 | pinometostat 0.003 | [5] 0.021 | [6] 0.026

ALG2 (UniProt Q9H553)
inactive: IRAK-1-4 Inhibitor I 0.038 | ibrutinib -0.031 | [1] -0.044 | ralimetinib -0.033 | [2] -0.017 | [3] -0.002 | [4] 0.009 | pinometostat 0 | [5] -0.032 | [6] 0.036

AHCYL1 (UniProt O43865)
inactive: IRAK-1-4 Inhibitor I 0.035 | ibrutinib 0.062 | ralimetinib 0.008 | [2] -0.016 | [3] 0.014 | [4] 0.001 | pinometostat -0.048 | [6] -0.004
active: [1] 0.337

ALYREF (UniProt Q86V81)
inactive: IRAK-1-4 Inhibitor I -0.123 | ibrutinib 0.019 | [1] 0.145 | ralimetinib 0.096 | [2] 0.168 | [3] 0.216 | [4] 0.089 | pinometostat 0.205 | [5] 0.039 | [6] -0.236

AHNAK (UniProt Q09666)
inactive: IRAK-1-4 Inhibitor I 0.012 | ibrutinib 0 | [1] -0.061 | ralimetinib 0.002 | [2] 0.069 | [3] 0.16 | [4] -0.04 | pinometostat 0.016 | [5] -0.015 | [6] 0.056

ANAPC10 (UniProt Q9UM13)
inactive: IRAK-1-4 Inhibitor I 0.039 | ibrutinib -0.01 | [1] 0.004 | ralimetinib 0.057 | [2] 0.045 | [3] -0.074 | [4] 0.022 | pinometostat 0.001 | [5] 0.047 | [6] -0.083

AK3 (UniProt Q9UIJ7)
inactive: IRAK-1-4 Inhibitor I 0.027 | ibrutinib -0.003 | [1] -0.009 | ralimetinib -0.07 | [2] -0.009 | [3] 0.012 | [4] -0.019 | pinometostat -0.036 | [5] -0.011 | [6] 0.039

Random excerpt: 2 entries already listed
AKAP1 (UniProt Q92667)
inactive: IRAK-1-4 Inhibitor I -0.098 | ibrutinib -0.034 | [1] -0.082 | ralimetinib 0.14 | [2] 0.042 | [3] -0.176 | [4] 0.046 | pinometostat 0.197 | [5] 0.032 | [6] 0.042

AK3 (UniProt Q9UIJ7)
inactive: IRAK-1-4 Inhibitor I 0.027 | ibrutinib -0.003 | [1] -0.009 | ralimetinib -0.07 | [2] -0.009 | [3] 0.012 | [4] -0.019 | pinometostat -0.036 | [5] -0.011 | [6] 0.039

The results go on.

AKAP12 (UniProt Q02952)
inactive: IRAK-1-4 Inhibitor I 0.104 | ibrutinib 0.07 | [1] -0.036 | ralimetinib -0.009 | [2] 0.048 | [3] 0.058 | [4] 0.065 | pinometostat 0.088 | [5] -0.183 | [6] -0.053
